Reference: PubChem BioAssay AID602196 (INSERM, 2012)

Test: 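Modifiers of cisplatin sensitivity in A549 cells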
Cell system: human A549 lung cancer cells
Knock-down reagent: siRNA pair against human genes
Timing: 48 h transfection before cisplatin; time from cisplatin to read-out not stated
Treatment: cisplatin at a dose killing half of control-siRNA cells; exact dose and duration not given
Read-out: 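Cisplatin cell death as a shift from the 50% death seen with control siRNA; siRNAs toxic or growth-blocking alone scored 0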
Direction: two-siRNA summed score (-2 to +2): higher = both siRNAs protect from cisplatin killing; -2 means both sensitise
Hit rule: 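Each siRNA scores 0 if harmful alone by LDH or WST-1, otherwise +1 if it reduces and -1 if it increases cisplatin killing; a gene is active when both siRNAs agree (sum +2 or -2)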
Calls: active = both siRNAs shift cisplatin killing the same way; inactive = no consistent shift, or siRNA harmful alone
In all, the deposit lists about 23,000 reagents; below is a part drawn at random. Of all reagents, 455 (2%) were called active. 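Active includes both protection and sensitisation; some change values fall well beyond the stated -50 to +50 range.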 Further read-outs or replicates are left out here. Not given: the amount of reagent.

| target | two-siRNA summed score (-2 to +2) | outcome |
| --- | --- | --- |
| TMEM242 (transmembrane protein 242) | 0 | inactive |
| LINC00272 (long independently transcribed non-coding RNA 272) | 0 | inactive |
| RAD51AP1 (RAD51 associated protein 1) | 0 | inactive |
| LOC285331 | 1 | inactive |
| LOC400921 | 0 | inactive |
| LMX1B (LIM homeobox transcription factor 1 beta) | 0 | inactive |
| TMEM64 (transmembrane protein 64) | 0 | inactive |
| NFATC3 (nuclear factor of activated T cells 3) | 0 | inactive |
| SEPTIN14P6 (septin 14 pseudogene 6) | 0 | inactive |
| PTPA (protein phosphatase 2 phosphatase activator) | 0 | inactive |
| NDUFS6 (NADH:ubiquinone oxidoreductase subunit S6) | 0 | inactive |
| ABCG8 (ATP binding cassette subfamily G member 8) | 1 | inactive |
| STRC (stereocilin) | 0 | inactive |
| DENND6A (DENN domain containing 6A) | 0 | inactive |
| STRBP (spermatid perinuclear RNA binding protein) | 0 | inactive |
| HAO1 (hydroxyacid oxidase 1) | 0 | inactive |
| ERCC8 (ERCC excision repair 8, CSA ubiquitin ligase complex subunit) | 0 | inactive |
| NCK2 (NCK adaptor protein 2) | 0 | inactive |
| SLC29A4P1 | 0 | inactive |
| ZSCAN2 (zinc finger and SCAN domain containing 2) | 0 | inactive |
| CDC45 (cell division cycle 45) | -2 | active |
| HECW2 | 0 | inactive |
| ACKR1 (atypical chemokine receptor 1 (Duffy blood group)) | -1 | inactive |
| LOC286042 | -1 | inactive |
| TRAK1 (trafficking kinesin protein 1) | 0 | inactive |
| BOLA3 (bolA family member 3) | 0 | inactive |
| BST1 (bone marrow stromal cell antigen 1) | -2 | active |
| BCR (BCR activator of RhoGEF and GTPase) | -1 | inactive |
| OR2M3 (olfactory receptor family 2 subfamily M member 3) | -1 | inactive |
| BCL11B (BCL11 transcription factor B) | 0 | inactive |
| LOC441071 | 0 | inactive |
| LOC389782 | 0 | inactive |
| MARCHF8 (membrane associated ring-CH-type finger 8) | 0 | inactive |
| POPDC3 (popeye domain cAMP effector 3) | 0 | inactive |
| WDR91 (WD repeat domain 91) | 0 | inactive |
| MYO1B (myosin IB) | 0 | inactive |
| AKAP17A (A-kinase anchoring protein 17A) | 0 | inactive |
| TEX28 (testis expressed 28) | 1 | inactive |
| KIR2DL2 | 0 | inactive |
| LOC441181 | 0 | inactive |
| OR10Z1 (olfactory receptor family 10 subfamily Z member 1) | 0 | inactive |
| EEF1B2 (eukaryotic translation elongation factor 1 beta 2) | -1 | inactive |
| KERA (keratocan) | 0 | inactive |
| CPXM2 (carboxypeptidase X, M14 family member 2) | 1 | inactive |
| SCN8A (sodium voltage-gated channel alpha subunit 8) | -1 | inactive |
| MTUS2 (microtubule associated scaffold protein 2) | 0 | inactive |
| SLC16A6 | 0 | inactive |
| KLRC2 (killer cell lectin like receptor C2) | 0 | inactive |
| LOC283902 | 0 | inactive |
| CALHM4 (calcium homeostasis modulator family member 4) | 0 | inactive |
| GANC (glucosidase alpha, neutral C) | 1 | inactive |
| EVL (Enah/Vasp-like) | 0 | inactive |
| LOC440086 | 0 | inactive |
| EXOSC6 (exosome component 6) | 0 | inactive |
| USP18 (ubiquitin specific peptidase 18) | -1 | inactive |
| CARD11 (caspase recruitment domain family member 11) | 0 | inactive |
| INTS4 (integrator complex subunit 4) | 0 | inactive |

No new results follow: entries from further up.
| target | two-siRNA summed score (-2 to +2) | outcome |
| --- | --- | --- |
| WDR91 (WD repeat domain 91) | 0 | inactive |
| MYO1B (myosin IB) | 0 | inactive |
| AKAP17A (A-kinase anchoring protein 17A) | 0 | inactive |
| TEX28 (testis expressed 28) | 1 | inactive |
